Like-named read-outs stand apart in the source and are kept apart here.
Experiments:
[1] = human, microsomes, 1 h
[2] = mouse, microsomes, 1 h
[3] = dog, microsomes, 1 h
[4] = rat, microsomes, 1 h

With `CCCNCC(O)COc1ccccc1C(=O)CCc1ccccc1` (stereo not shown) [Propafenone, reference compound] the “Remaining (NCF = 60 min)” value [1] was 92.5%, the “Remaining (NCF = 60 min)” value [2] was 91.7% and the “Remaining (NCF = 60 min)” value [3] was 89.6%. For the same compound, the “Remaining (NCF = 60 min)” value [4] was 89.2%.

Reference: patent US9895352B2, “Indolinone compounds and uses thereof” (Oncternal Therapeutics, Inc., priority 2014, dated 2018)
